Some of the results follow.
Compound: CC1Cc2ccccc2N1C(=O)C1CCCN(C1)C(=O)CCl (mixture of isomers) [TRIM25 ligand 11 (diastereomer mixture)]
Experiment: probe-labelled cysteine peptide fold change vs DMSO (competition) (log2 fold change); higher = less target engagement (more negative = stronger competition)
Conditions: THP-1, incubation time: 4 h
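Note: competitive chemoproteomic profiling in live THP-1 cells with an iodoacetamide desthiobiotin (IA-DTB) probe, comparing probe-labelled peptide intensities in compound-treated cells against DMSO-treated controls.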

Protein sequences, listed by entry. Tags and fused reporters are not part of them. Lines headed by an entry give the natural chain unless they say otherwise; changes in a name come on top.
UniProt P14618, whole entry, looked up: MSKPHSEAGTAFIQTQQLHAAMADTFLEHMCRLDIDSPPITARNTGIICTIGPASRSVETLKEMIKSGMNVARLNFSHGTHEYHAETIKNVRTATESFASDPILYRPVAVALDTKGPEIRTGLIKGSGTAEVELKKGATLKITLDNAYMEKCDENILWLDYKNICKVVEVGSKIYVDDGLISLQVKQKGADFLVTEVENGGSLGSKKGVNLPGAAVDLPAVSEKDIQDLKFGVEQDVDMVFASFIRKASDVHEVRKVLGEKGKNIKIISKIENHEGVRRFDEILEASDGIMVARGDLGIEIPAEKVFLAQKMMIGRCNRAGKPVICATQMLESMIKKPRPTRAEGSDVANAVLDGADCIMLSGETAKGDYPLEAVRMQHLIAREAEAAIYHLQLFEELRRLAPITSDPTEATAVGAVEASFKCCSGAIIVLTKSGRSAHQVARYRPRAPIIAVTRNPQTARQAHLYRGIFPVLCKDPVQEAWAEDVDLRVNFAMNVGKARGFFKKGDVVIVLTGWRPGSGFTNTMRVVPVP
UniProt Q15126: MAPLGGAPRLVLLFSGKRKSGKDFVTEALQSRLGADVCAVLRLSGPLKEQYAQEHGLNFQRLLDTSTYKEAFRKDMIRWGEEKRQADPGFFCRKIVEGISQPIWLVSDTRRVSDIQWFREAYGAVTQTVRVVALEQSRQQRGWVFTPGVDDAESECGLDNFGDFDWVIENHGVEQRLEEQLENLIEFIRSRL
UniProt P29590: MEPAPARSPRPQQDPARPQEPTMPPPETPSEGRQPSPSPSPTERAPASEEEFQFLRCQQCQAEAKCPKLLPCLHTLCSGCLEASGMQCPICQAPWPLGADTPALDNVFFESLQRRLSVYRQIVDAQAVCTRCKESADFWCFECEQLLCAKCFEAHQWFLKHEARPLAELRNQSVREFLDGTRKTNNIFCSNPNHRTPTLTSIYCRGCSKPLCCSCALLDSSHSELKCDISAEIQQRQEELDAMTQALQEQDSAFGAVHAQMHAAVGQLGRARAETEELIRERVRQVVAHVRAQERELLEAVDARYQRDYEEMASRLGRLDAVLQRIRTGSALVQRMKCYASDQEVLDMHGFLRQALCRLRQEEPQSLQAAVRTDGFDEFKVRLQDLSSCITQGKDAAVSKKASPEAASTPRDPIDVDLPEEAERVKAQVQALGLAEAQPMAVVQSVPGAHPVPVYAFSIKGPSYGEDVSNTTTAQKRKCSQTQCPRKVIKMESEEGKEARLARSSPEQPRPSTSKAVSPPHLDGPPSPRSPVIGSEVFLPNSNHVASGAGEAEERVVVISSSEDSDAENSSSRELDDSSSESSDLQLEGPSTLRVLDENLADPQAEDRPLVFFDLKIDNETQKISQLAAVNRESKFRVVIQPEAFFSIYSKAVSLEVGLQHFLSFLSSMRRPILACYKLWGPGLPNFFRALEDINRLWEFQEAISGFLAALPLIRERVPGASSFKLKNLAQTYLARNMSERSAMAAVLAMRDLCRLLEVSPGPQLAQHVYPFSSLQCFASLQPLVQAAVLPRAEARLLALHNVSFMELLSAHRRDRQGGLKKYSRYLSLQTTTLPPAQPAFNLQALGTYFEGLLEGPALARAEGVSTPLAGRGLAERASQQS
UniProt Q9NRX1: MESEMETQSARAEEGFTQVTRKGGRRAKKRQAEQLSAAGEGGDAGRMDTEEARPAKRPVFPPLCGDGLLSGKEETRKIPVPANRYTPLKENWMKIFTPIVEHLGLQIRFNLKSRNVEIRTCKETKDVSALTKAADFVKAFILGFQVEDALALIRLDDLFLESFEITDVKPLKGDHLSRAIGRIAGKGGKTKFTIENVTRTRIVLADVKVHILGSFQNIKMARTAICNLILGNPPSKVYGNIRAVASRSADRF
UniProt Q15149: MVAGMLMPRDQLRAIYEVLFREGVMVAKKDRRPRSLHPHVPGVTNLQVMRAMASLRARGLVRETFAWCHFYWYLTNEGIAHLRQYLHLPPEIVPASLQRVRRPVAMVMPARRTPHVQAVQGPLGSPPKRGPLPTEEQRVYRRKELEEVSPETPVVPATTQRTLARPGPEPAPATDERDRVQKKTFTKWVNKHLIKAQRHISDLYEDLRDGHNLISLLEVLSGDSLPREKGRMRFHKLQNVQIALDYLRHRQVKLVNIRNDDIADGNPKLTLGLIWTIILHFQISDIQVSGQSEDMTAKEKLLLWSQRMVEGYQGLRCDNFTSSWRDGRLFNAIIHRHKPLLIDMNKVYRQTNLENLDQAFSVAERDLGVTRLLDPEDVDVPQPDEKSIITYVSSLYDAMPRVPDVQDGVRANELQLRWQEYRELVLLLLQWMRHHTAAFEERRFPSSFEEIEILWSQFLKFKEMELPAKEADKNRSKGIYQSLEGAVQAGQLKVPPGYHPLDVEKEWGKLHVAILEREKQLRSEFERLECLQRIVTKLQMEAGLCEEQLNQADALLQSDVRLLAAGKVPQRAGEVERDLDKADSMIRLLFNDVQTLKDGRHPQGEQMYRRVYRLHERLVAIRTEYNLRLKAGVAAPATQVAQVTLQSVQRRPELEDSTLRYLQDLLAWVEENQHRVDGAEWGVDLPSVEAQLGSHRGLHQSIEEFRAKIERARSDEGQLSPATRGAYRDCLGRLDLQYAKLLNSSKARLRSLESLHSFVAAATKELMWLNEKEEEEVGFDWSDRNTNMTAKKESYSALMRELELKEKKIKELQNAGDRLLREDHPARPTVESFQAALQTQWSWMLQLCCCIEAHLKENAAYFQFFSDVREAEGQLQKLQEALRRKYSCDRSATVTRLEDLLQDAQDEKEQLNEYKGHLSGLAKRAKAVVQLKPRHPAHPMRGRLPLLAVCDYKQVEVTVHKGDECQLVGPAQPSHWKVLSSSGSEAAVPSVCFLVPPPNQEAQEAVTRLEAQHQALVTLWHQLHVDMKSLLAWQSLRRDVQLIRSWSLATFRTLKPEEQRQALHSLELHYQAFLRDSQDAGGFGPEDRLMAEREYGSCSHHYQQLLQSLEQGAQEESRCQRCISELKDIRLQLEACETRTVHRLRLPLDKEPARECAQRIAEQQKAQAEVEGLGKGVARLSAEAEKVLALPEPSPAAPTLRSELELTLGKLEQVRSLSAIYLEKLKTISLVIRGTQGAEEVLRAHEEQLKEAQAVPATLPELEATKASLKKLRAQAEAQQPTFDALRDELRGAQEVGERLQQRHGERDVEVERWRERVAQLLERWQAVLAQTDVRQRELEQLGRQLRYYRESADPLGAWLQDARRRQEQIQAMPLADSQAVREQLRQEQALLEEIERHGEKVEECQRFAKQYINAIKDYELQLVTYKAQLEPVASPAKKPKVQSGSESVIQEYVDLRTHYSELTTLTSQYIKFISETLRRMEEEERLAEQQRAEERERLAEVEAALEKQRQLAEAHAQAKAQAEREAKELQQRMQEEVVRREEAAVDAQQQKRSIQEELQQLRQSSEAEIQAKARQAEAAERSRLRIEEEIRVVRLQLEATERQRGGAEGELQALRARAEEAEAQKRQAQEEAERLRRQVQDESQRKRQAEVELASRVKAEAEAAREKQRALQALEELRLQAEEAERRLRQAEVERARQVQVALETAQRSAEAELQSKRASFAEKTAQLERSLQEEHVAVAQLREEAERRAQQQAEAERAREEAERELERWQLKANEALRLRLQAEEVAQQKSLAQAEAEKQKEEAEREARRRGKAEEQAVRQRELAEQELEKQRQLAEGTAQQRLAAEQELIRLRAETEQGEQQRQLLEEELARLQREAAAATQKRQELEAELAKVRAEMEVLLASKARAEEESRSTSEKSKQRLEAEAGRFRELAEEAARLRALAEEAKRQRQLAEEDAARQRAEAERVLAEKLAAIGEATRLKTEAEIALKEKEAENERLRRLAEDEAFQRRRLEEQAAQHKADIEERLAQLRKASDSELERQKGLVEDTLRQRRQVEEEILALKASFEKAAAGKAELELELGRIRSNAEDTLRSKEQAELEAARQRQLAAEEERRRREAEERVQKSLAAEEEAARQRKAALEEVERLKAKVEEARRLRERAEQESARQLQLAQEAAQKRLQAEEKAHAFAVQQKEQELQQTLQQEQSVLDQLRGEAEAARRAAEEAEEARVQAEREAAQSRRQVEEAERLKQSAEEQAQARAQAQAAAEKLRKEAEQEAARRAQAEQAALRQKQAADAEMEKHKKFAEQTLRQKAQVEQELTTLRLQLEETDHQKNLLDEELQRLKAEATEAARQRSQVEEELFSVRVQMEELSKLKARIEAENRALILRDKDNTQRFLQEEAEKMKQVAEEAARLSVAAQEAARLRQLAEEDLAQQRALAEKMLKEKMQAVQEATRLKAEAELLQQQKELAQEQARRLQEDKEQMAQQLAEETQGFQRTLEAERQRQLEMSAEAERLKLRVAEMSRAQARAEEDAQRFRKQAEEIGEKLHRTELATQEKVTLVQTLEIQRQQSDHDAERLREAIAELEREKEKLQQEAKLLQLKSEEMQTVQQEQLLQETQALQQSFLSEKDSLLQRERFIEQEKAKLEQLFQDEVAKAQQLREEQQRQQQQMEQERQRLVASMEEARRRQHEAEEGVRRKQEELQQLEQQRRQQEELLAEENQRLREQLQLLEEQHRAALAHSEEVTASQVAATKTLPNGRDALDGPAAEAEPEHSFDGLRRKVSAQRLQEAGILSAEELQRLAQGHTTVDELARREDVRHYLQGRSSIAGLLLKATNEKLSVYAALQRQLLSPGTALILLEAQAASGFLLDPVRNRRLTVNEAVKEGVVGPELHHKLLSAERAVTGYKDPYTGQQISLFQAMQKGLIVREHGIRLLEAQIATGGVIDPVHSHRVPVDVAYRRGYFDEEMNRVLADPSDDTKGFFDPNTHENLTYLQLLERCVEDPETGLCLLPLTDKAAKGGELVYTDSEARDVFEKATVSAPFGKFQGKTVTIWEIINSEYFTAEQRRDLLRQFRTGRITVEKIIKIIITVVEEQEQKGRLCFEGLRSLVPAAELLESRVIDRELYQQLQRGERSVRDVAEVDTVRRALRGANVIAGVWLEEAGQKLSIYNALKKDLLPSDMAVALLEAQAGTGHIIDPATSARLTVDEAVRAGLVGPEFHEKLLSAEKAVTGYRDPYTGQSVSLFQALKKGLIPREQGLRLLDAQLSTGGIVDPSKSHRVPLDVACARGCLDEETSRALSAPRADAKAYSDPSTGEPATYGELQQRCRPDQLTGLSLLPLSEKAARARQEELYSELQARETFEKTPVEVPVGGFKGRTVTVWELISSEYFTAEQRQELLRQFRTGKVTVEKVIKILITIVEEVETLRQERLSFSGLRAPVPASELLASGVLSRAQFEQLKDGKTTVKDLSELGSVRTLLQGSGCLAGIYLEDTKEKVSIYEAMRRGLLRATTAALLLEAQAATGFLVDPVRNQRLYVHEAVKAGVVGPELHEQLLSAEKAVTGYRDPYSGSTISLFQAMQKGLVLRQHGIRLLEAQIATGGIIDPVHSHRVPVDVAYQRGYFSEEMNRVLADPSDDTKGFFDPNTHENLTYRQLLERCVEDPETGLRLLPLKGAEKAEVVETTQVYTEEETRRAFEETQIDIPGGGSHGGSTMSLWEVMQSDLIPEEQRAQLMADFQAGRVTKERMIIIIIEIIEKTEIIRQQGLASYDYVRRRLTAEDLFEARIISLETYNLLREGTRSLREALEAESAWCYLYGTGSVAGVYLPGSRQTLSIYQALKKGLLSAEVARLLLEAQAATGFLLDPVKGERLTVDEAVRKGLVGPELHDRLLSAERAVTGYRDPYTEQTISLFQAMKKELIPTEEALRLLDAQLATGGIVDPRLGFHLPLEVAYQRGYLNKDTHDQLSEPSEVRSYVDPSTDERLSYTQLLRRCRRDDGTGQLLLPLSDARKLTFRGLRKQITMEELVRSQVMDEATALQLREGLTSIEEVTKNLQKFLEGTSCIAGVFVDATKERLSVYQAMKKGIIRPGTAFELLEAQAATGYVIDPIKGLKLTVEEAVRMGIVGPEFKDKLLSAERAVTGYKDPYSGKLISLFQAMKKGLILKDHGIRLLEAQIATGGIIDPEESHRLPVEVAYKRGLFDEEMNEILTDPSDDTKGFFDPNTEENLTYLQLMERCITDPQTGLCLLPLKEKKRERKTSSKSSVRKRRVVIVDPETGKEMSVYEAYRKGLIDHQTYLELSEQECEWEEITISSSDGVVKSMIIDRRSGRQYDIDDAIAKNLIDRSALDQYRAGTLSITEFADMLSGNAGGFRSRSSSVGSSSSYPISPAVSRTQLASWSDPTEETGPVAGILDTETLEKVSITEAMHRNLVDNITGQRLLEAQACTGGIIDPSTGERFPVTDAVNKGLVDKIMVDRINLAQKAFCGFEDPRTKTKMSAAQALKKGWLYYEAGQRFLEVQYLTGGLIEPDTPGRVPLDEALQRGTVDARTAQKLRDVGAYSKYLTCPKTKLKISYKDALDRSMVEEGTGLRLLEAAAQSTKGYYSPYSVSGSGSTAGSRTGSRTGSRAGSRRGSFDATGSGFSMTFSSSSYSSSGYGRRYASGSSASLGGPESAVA

Question: “PKM_P14618_423+424_CCSGAIIVLTK (UniProt P14618)” was tested. Which “probe-labelled cysteine peptide fold change” value (10 µM) did it give?
Answer: -0.0398

Question: What about the “probe-labelled cysteine peptide fold change” value (50 µM) of the same target?
Answer: -0.112

Question: How did the “probe-labelled cysteine peptide fold change” value (10 µM) turn out when “PLS3_P13797_167_AVGDGIVLCK (UniProt P13797)” was run?
Answer: -0.157

Question: What about the “probe-labelled cysteine peptide fold change” value (50 µM) of the same target?
Answer: 0.124

Question: Which “probe-labelled cysteine peptide fold change” value (10 µM) does the source give for “PLCG2_P16885_551_LLQEYCMETGGK (UniProt P16885)” here?
Answer: -0.0436

Question: And the “probe-labelled cysteine peptide fold change” value (50 µM)?
Answer: -0.0603

Question: What does the source list for “PIKFYVE_Q9Y2I7_807_MTQGDLVMSMDQLLTKPHLGTCHK (UniProt Q9Y2I7)”?
Answer: probe-labelled cysteine peptide fold change (10 µM): -0.237; probe-labelled cysteine peptide fold change (50 µM): -0.0147

Question: How did the “probe-labelled cysteine peptide fold change” value (10 µM) turn out when “PIK3R4_Q99570_759_NGSLPDCPPPEDPAIAQLLK (UniProt Q99570)” was run?
Answer: -0.0253

Question: And the “probe-labelled cysteine peptide fold change” value (50 µM)?
Answer: 0.126

Question: How did the “probe-labelled cysteine peptide fold change” value (10 µM) turn out when “PLAUR_Q03405_144_SPEEQCLDVVTHWIQEGEEGRPK (UniProt Q03405)” was run?
Answer: 0.161

Question: What about the “probe-labelled cysteine peptide fold change” value (50 µM) of the same target?
Answer: 0.2

Question: Which “probe-labelled cysteine peptide fold change” value (10 µM) does the source give for “PMPCA_Q10713_140+142_HGGICDCQTSR (UniProt Q10713)” here?
Answer: -0.0321

Question: And the “probe-labelled cysteine peptide fold change” value (50 µM)?
Answer: -0.0373

Question: For “PMS1_P54277_102_GEALGSICCIAEVLITTR (UniProt P54277)”, which “probe-labelled cysteine peptide fold change” value (10 µM) is on record?
Answer: -0.341

Question: And the “probe-labelled cysteine peptide fold change” value (50 µM)?
Answer: 0.363

Question: How did the “probe-labelled cysteine peptide fold change” value (10 µM) turn out when “PMVK_Q15126_38_LGADVCAVLR (UniProt Q15126)” was run?
Answer: -0.0865

Question: What about the “probe-labelled cysteine peptide fold change” value (50 µM) of the same target?
Answer: -0.0199

Question: For “PLD3_Q8IV08_487_DWDSPYSHDLDTSADSVGNACR (UniProt Q8IV08)”, which “probe-labelled cysteine peptide fold change” value (10 µM) is on record?
Answer: -0.00483

Question: And the “probe-labelled cysteine peptide fold change” value (50 µM)?
Answer: -0.0461

Question: With “PLD1_Q13393_876_AELGNQWINYISFCGLR (UniProt Q13393)” as the target, how does the “probe-labelled cysteine peptide fold change” value (10 µM) read?
Answer: -0.0734

Question: What about the “probe-labelled cysteine peptide fold change” value (50 µM) of the same target?
Answer: 0.0204

Question: For “PLCB3_Q01970_193_VETALESCGLK (UniProt Q01970)”, which “probe-labelled cysteine peptide fold change” value (10 µM) is on record?
Answer: 0.0848

Question: And the “probe-labelled cysteine peptide fold change” value (50 µM)?
Answer: -0.133

Question: How did the “probe-labelled cysteine peptide fold change” value (10 µM) turn out when “PNKD_Q8N490_329_KGTCPSTLGEER (UniProt Q8N490)” was run?
Answer: -0.0643

Question: And the “probe-labelled cysteine peptide fold change” value (50 µM)?
Answer: -0.239

Question: Which “probe-labelled cysteine peptide fold change” value (10 µM) does the source give for “PLRG1_O43660_272_CWDLEYNK (UniProt O43660)” here?
Answer: -0.0476

Question: What about the “probe-labelled cysteine peptide fold change” value (50 µM) of the same target?
Answer: 0.119

Question: “PLCG2_P16885_355_CIELDCWDGPDGKPVIYHGWTR (UniProt P16885)” was tested. Which “probe-labelled cysteine peptide fold change” value (10 µM) did it give?
Answer: 0.0645

Question: And the “probe-labelled cysteine peptide fold change” value (50 µM)?
Answer: 0.167

Question: Which “probe-labelled cysteine peptide fold change” value (10 µM) does the source give for “PIK3R2_O00459_396_DGHYGFSEPLTFCSVVDLINHYR (UniProt O00459)” here?
Answer: 0.0424

Question: What about the “probe-labelled cysteine peptide fold change” value (50 µM) of the same target?
Answer: 0.0979

Question: With “PMPCB_O75439_277_GEIPALPPCK (UniProt O75439)” as the target, how does the “probe-labelled cysteine peptide fold change” value (10 µM) read?
Answer: 0.27

Question: What about the “probe-labelled cysteine peptide fold change” value (50 µM) of the same target?
Answer: 0.115

Question: How did the “probe-labelled cysteine peptide fold change” value (10 µM) turn out when “PLXNB2_O15031_770_SDCSLCR (UniProt O15031)” was run?
Answer: -0.0206

Question: And the “probe-labelled cysteine peptide fold change” value (50 µM)?
Answer: 0.183

Question: “PLG_P00747_398_CQSWSSMTPHR (UniProt P00747)” was tested. Which “probe-labelled cysteine peptide fold change” value (10 µM) did it give?
Answer: 0.146

Question: And the “probe-labelled cysteine peptide fold change” value (50 µM)?
Answer: -0.258

Question: “PLCB2_Q00722_216_SFLMSLCPRPEIDEIFTSYHAK (UniProt Q00722)” was tested. Which “probe-labelled cysteine peptide fold change” value (10 µM) did it give?
Answer: 0.11

Question: What about the “probe-labelled cysteine peptide fold change” value (50 µM) of the same target?
Answer: -0.0654

Question: Which “probe-labelled cysteine peptide fold change” value (10 µM) does the source give for “PML_P29590_140+143_ESADFWCFECEQLLCAK (UniProt P29590)” here?
Answer: 0.0457

Question: And the “probe-labelled cysteine peptide fold change” value (50 µM)?
Answer: -0.0346

Question: How did the “probe-labelled cysteine peptide fold change” value (10 µM) turn out when “PML_P29590_57+60_CQQCQAEAK (UniProt P29590)” was run?
Answer: -0.00539

Question: What about the “probe-labelled cysteine peptide fold change” value (50 µM) of the same target?
Answer: -0.0513

Question: For “PNO1_Q9NRX1_64_RPVFPPLCGDGLLSGK (UniProt Q9NRX1)”, which “probe-labelled cysteine peptide fold change” value (10 µM) is on record?
Answer: 0.00892

Question: What about the “probe-labelled cysteine peptide fold change” value (50 µM) of the same target?
Answer: -0.202

Question: With “PIK3R4_Q99570_1097_ILDQKEDGCVVDMHHFNSGAQSVLAYATVNGSLVGWDLR (UniProt Q99570)” as the target, how does the “probe-labelled cysteine peptide fold change” value (10 µM) read?
Answer: 0.0468

Question: And the “probe-labelled cysteine peptide fold change” value (50 µM)?
Answer: -0.0347

Question: How did the “probe-labelled cysteine peptide fold change” value (10 µM) turn out when “PMS2_P54278_653_ICPGENQAAEDELRK (UniProt P54278)” was run?
Answer: 0.0335

Question: And the “probe-labelled cysteine peptide fold change” value (50 µM)?
Answer: -0.00631

Question: For “PNO1_Q9NRX1_64_RPVFPPLCGDGLLSGKEETR (UniProt Q9NRX1)”, which “probe-labelled cysteine peptide fold change” value (10 µM) is on record?
Answer: -0.221

Question: And the “probe-labelled cysteine peptide fold change” value (50 µM)?
Answer: -0.419

Question: With “PLEC_Q15149_3821_EALEAESAWCYLYGTGSVAGVYLPGSR (UniProt Q15149)” as the target, how does the “probe-labelled cysteine peptide fold change” value (10 µM) read?
Answer: 0.0207

Question: And the “probe-labelled cysteine peptide fold change” value (50 µM)?
Answer: -0.00398

Question: With PLAA_Q9Y263_788_VSECCR (UniProt Q9Y263) as the target, how does the “probe-labelled cysteine peptide fold change” value (10 µM) read?
Answer: -0.0123

Question: And the “probe-labelled cysteine peptide fold change” value (50 µM)?
Answer: 0.109

Question: For “PLEC_Q15149_4071_FLEGTSCIAGVFVDATK (UniProt Q15149)”, which “probe-labelled cysteine peptide fold change” value (10 µM) is on record?
Answer: -0.0116

Question: What about the “probe-labelled cysteine peptide fold change” value (50 µM) of the same target?
Answer: 0.0455

Question: What does the source list for “PML_P29590_479_CSQTQCPR (UniProt P29590)”?
Answer: probe-labelled cysteine peptide fold change (10 µM): -0.201; probe-labelled cysteine peptide fold change (50 µM): -0.093

Question: Which “probe-labelled cysteine peptide fold change” value (10 µM) does the source give for “PKM_P14618_31_PHSEAGTAFIQTQQLHAAMADTFLEHMCR (UniProt P14618)” here?
Answer: -0.00318

Question: What about the “probe-labelled cysteine peptide fold change” value (50 µM) of the same target?
Answer: 0.0277
